## Percent effect of library compounds

By UniProt entry, the sequences of proteins in these tests, tags left out. Residues count along the entry.
UniProt A4I591, 1-473: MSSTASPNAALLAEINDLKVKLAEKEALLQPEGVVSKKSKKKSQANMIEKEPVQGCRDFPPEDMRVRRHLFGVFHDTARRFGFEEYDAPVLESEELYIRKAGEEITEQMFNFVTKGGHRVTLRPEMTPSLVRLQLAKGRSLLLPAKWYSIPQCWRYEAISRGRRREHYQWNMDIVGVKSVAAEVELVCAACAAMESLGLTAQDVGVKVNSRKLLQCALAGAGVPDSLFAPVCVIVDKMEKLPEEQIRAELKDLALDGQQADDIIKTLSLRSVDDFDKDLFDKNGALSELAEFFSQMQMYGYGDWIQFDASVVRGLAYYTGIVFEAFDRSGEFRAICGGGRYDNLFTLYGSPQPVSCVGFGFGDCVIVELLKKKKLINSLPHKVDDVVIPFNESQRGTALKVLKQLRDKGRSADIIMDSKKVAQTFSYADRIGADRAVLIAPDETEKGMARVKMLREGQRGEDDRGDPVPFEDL
UniProt Q8IDJ8, 1-583: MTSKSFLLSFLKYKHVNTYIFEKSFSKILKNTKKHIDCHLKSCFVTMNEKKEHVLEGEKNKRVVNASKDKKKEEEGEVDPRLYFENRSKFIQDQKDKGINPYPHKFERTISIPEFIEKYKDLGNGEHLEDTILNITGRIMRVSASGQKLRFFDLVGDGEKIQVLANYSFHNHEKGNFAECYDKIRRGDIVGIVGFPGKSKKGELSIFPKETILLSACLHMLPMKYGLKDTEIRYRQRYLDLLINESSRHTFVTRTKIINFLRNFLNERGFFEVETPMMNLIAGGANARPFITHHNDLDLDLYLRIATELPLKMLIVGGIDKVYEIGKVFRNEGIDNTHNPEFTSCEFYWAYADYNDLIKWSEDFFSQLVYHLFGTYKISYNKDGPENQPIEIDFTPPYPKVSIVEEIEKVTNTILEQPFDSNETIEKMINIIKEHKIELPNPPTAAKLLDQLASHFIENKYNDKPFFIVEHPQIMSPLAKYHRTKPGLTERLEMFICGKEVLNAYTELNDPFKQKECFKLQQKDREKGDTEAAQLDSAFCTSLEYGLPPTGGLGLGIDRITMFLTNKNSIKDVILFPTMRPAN

Measurements from “University of Dundee, Small-Polar-MMV Screening Library” (2021), ChEMBL document CHEMBL3988442.

LiHisRS: 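Histidine-tRNA ligase, Leishmania infantum (UniProt A4I591). Enzyme assay of histidyl-tRNA synthetase; the read-out is not stated. Concentration: 30 µM. Higher reads as stronger inhibition (inferred: compounds with an IC50 in retests scored well above the rest). The assay is labelled LdHisRS but filed under L. infantum. Of about 69,000 compounds tested this way, about 410 (0.6%) reached 50% or more in at least one test.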
PfKRS1: 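Enzyme assay of the cytosolic lysyl-tRNA synthetase in 384-well plates, read by luminescence. Target: Lysine-tRNA ligase, Plasmodium falciparum 3D7 (UniProt Q8IDJ8). Tested at 30 µM. Direction is inferred from only a few compounds that gave an IC50; most scored high, so higher reads as stronger inhibition. Size under these conditions: about 69,000 compounds, about 49 of them at 50% or above in at least one test.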

Results are given as percent effect. The record does not define 0% and 100%; most values in the screen are far below 50% and negative numbers occur (in some assays of this library far below -100). The compounds are a random part of those screened.

Compound,LiHisRS,PfKRS1
COCc1noc(C2(c3ccc(Cl)cc3)CCOCC2)n1,6.849,7.658
Cc1cc(C)cc(NC(=O)N(CCC#N)CCCN(C)C)c1,12.82,2.066
Cc1ccccc1SCC(=O)NC1CCC(O)CC1 (stereo unspecified),15.54,-2.661
Cc1cc(C)n(CC2CN(Cc3ccc(C(N)=O)cc3)CCO2)n1 (stereo unspecified),22.35,10.22
Cc1cc(CN2CCC(O)(Cn3ccc4ncccc43)CC2)c(C)s1,23.96,4.964
c1cc(CNCc2cccc3c2OCCCO3)cc(Cn2cncn2)c1,4.348,-3.849
Cn1ccnc1CN1CCN(Cc2ccc(C#N)cc2)CC1,14.68,-0.8174
Cc1nc(N)cc(C2CCN2CCC(N)=O)n1 (stereo unspecified),21.43,-0.1332
O=S(=O)(CCCNC1CCc2ncnn2C1)c1ccccc1 (stereo unspecified),5.128,-1.554
Cc1noc(CN(Cc2cccc(C#N)c2)Cc2cccs2)n1,16.07,5.28
N#Cc1ccc(N2CCC(OCCc3ccccc3)CC2)nc1,16.3,6.894
CCC(CO)N(Cc1cccnc1)Cc1ccc(-c2ccn[nH]2)s1 (stereo unspecified),5.376,0.4474
O=C1NCC2(CCCN(C(=O)c3ccc4c(c3)CCO4)C2)O1 (stereo unspecified),25.64,8.322
O=C(NC[C@H]1OC[C@@H]2CCN(Cc3ccco3)C[C@@H]21)c1ccnnc1,22.34,3.499
Cc1ccc(CN2Cc3nccn3CC(Cn3cncn3)C2)s1 (stereo unspecified),15.96,-19.36
COc1ccnc(NC(=O)c2ccsc2)c1,13.13,1.865
CCOc1c(F)cccc1C(=O)N(c1cccnc1)C(C)C,13.51,8.038
Cn1cnc2c1CCN(CCCOc1ccc(S(C)(=O)=O)cc1)C2,12.82,7.012
CCn1cnnc1Cn1cccc(C(F)(F)F)c1=O,11.11,-2.978
CC(=O)N(Cc1ncc(C(C)C)o1)C1CCN(CCC#N)C1 (stereo unspecified),18.35,1.327
CCCC(=O)Nc1cc(C(=O)NC(C)Cc2ccncc2)ccc1C (stereo unspecified),17.2,4.305
Cc1nn(C)c(N(C)C)c1CNCc1ccnn1C,7.895,3.742
COCCN1CC[C@]2(CN(C(=O)c3cccs3)C[C@H]2C)C1=O,17.07,-2.453
NC(=O)CS(=O)(=O)Cc1ccc(OCc2ccc(F)cc2)cc1,23.94,1.329
CCCOc1ccc(C(=O)N2CC[C@H]3CC[C@@H](C2)N3)cc1Cl,9.167,-1.491
O=C(NCCCO)Nc1cccc(C[S+]([O-])c2ccccc2)c1 (stereo unspecified),22.22,7.35
Cc1ccsc1C(=O)Nc1cc(Br)c(=O)n(C)c1,106.8,1.214
O=C1[C@H]2CC[C@H](CN(Cc3nnc(C4CC4)o3)C2)N1Cc1cscn1,14.29,-2.658
COCC(=O)Nc1ccc(-c2noc([C@@H]3CCCN3C)n2)cn1,11.11,3.119
Cc1cc2cc(NC(=O)Cn3ncc(N4CCCC4)cc3=O)ccc2o1,3.226,0.8854
NC(=O)c1ccc(N2CCN(Cc3ccc(F)cc3Cl)CC2)nn1,17.81,4.876
COc1cccc(CNC2CCCOc3cc(C)ccc32)n1 (stereo unspecified),-0.8929,2.146
Cc1cc(C(=O)N2CCCC2c2noc(C(C)C)n2)c(C)o1 (stereo unspecified),3.67,0.8828
CCCN1CCC(CC(=O)NCc2cc(C)nn2C)CC1,18.25,0.5971
Cc1ccc2c(c1)c(CNC(=O)C1CCN(C(=O)C3CC3)CC1)nn2C,13.33,-0.3849
c1cn(Cc2nnc(C3CCN(C4CCNCC4)CC3)n2C2CC2)cn1,8.333,4.256
O=C1CN(C(=O)CC2C(=O)NCCN2CC2CCCCC2)CCN1 (stereo unspecified),19.61,0.8546
Cc1ccc(C2CCCCCN2C(=O)Nc2cn[nH]c2)o1 (stereo unspecified),17.24,0.5488
Cc1nnc2n1CCN(CC(=O)NC(C)c1cc3ccccc3o1)C2 (stereo unspecified),6.25,-0.02376
Cc1nn(C(C)(C)C)c(=O)n1CC(=O)NC(C)(C)C,24.66,1.932
CN(C)CCN1CCOCC12CCN(C(=O)C1CC1)CC2,4.167,-2.099
CC(C)c1ccn(C2(C(=O)O)CCN(c3cc(C(N)=O)ccn3)CC2)n1,8.197,6.401
COC(=O)C(c1cc(F)ccc1F)N(C)C(=O)c1cnccn1 (stereo unspecified),-3.509,-1.887
Cn1nccc1CN1CCOC(c2cccc(Nc3ccccn3)n2)C1 (stereo unspecified),11.19,0.006984
CNS(=O)(=O)c1ccc(CN2CCC(c3ccncc3)CC2)cc1,17.11,4.834
COc1cccc(-c2cnc(CNC(C)(C)c3nc(C)cs3)o2)c1,7.143,0.6784
Cc1cc(C2CCCN2Cc2cc(=O)n(C)c(=O)n2C)no1 (stereo unspecified),10.19,-1.131
Cc1cc2c(cc1C)C(NCc1nnc3n1CCCCC3)CCCO2 (stereo unspecified),11.32,1.145
O=C(NCC(O)c1cccs1)c1sccc1OC(F)F (stereo unspecified),14.29,4.734
Cc1ccc(C(=O)N2CCN(CC(O)c3ccc(F)cc3)CC2)s1 (stereo unspecified),16.8,1.298
Cc1nc(C)c(C(=O)N2CCCC2c2nnc3n2CCCCC3)s1 (stereo unspecified),13.46,4.757
CN(C)CCN1CC2(CCN(C(=O)c3cnccn3)CC2)OC1=O,9.375,1.869
O=c1ccn([C@H]2CCN(Cc3ncc[nH]3)CC[C@@H]2O)c(=O)[nH]1,10,-0.5705
COc1ccccc1OCC(=O)NCc1ncc(C)c(OC)c1C,17.78,7.397
C/C=C(\C)CN1C[C@@H](NC(=O)c2ccc(O)c(Cl)c2)C[C@H]1C(=O)NCC,17.5,4.746
O=C(Cc1ccccc1)NCCNCc1cccc(O)c1,10.43,-0.4379
Cc1cc(C2CCCN(Cc3ncc(C)o3)C2)n[nH]1 (stereo unspecified),-6.452,4.588
Cc1cc(N2CCCC2)nc(CNS(=O)(=O)Cc2ccccc2)n1,17.33,4.226
CCCNC(=O)c1cc(OC)c(OC)cc1N(C)S(C)(=O)=O,5.833,4.977
CCNC(=O)NC(=O)CN1CCOC(c2cccc(Br)c2)C1 (stereo unspecified),18.97,3.621
Cc1ccc(C(=O)N2CCN(c3ncnc4nc(N)ccc34)CC2)o1,21.67,10.86
CN1CCC(C(=O)N2CCCN(c3cccnn3)CC2)C1 (stereo unspecified),21.98,-0.1162
CCn1ccnc1CN1C[C@@H](NC(=O)C2CC2)[C@H](c2ccc(C)cc2)C1,0,0.1499
COCCNc1ccc(CC2CCCN(Cc3c[nH]cn3)C2)nn1 (stereo unspecified),1.408,2.484
COCC(=O)N1C[C@H]2CN(Cc3cccc(F)c3)C(=O)[C@H]2C1,15.6,6.649
Cc1nc[nH]c1CN(C)CC1CCCN(CCc2ccc(Cl)cc2)C1 (stereo unspecified),19.23,-1.634
O=C1NC(c2ccccc2)=N[C@@]12CC[C@@H]1CN(CC3CCOCC3)C[C@@H]12,-5.66,-5.743
O=C(NCc1cnc2n1CCN(Cc1nccs1)CC2)C1CCC1,11.11,3.704
CN(Cc1ccccc1)CC(O)Cn1cnc2cc(F)ccc2c1=O (stereo unspecified),10.19,0.1539
CCOC[C@@]12CCC[C@@H]1CN(C(=O)COc1ccccc1OC)C2,4.545,2.458
N#Cc1ccc(NCc2cccc(OCC3CCCO3)c2)nc1 (stereo unspecified),21.74,-2.955
Cc1cccc(Oc2ccccc2CNC(=O)C2CCC(=O)NC2)c1 (stereo unspecified),15.96,2.182
CS(=O)(=O)N1CCN(CC(O)COc2ccc(F)cc2)CC1 (stereo unspecified),5.333,5.65
CC1(NC(=O)Cc2csc(C(C)(C)C)n2)CCS(=O)(=O)C1 (stereo unspecified),17.31,-3.605

Once more, the final 5:

Compound,LiHisRS,PfKRS1
CCOC[C@@]12CCC[C@@H]1CN(C(=O)COc1ccccc1OC)C2,4.545,2.458
N#Cc1ccc(NCc2cccc(OCC3CCCO3)c2)nc1 (stereo unspecified),21.74,-2.955
Cc1cccc(Oc2ccccc2CNC(=O)C2CCC(=O)NC2)c1 (stereo unspecified),15.96,2.182
CS(=O)(=O)N1CCN(CC(O)COc2ccc(F)cc2)CC1 (stereo unspecified),5.333,5.65
CC1(NC(=O)Cc2csc(C(C)(C)C)n2)CCS(=O)(=O)C1 (stereo unspecified),17.31,-3.605